The source of these data is paper PMC11944487.

Results are given in words; binding and its absence hold for the method and conditions named. In cells and extracts the contact can be indirect. A result given as binding can be weak or reduced; the word gives no strength. Sequences can lack the tags named with a protein.

In the test the target is Flag-VP2 (pXJ40-Flag-VP2, full-length MVC VP2) (Minute Virus of Canines (MVC)). Briefly: co-IP; lysates of COS-1 cells co-transfected with an HA-tagged plasmid and pXJ40-Flag-VP2; IP with mouse anti-Flag or rabbit anti-HA antibody or IgG, protein A/G agarose, 4 °C; Western blot; done in both directions. (In general: A western blot detects proteins with antibodies after separation by electrophoresis.)

B1: HA-tagged Occludin (pCMV-HA-Occludin) (protein, UniProt Q28269 1-521)
chain: MSSRPFESPPPYRPDEFKPNHYAPSNDVYGGDMHVRPMLSQPAYSFYPEDEILHFYKWTSPPGVIRILSMLVIVMCIAIFGCVASTLAWDRGYGTGLMGGSIGYPYGSGFGSYGTGYGYGFGYGYGYGGYTDPRAAKGFLLAMVAFCFIAALVIFVTSVIRSDISRTRRYYLTVIILSAFLGVMMFIATIVYIMGVNPTAQASGSLYSSQIYAMCNQFYASTATGLYMDQYLYHYCVVDPQEAIAIVLGFMVIVAFALIIFFAVKTRRKMDRYDKSNILWDKEHIYDEQPPNVEEWVKNVSAGTQDMPPPPSDYVERVDSPMAYSSNGKVNDKRLYPESSYKSTPVPEVVQELPATSPADDFRQPRYSSSGHLEPPSKRAPSKGRTGRPKRLEQDHYETDYTTGGESCDELEEDWIREYPPITSDQQRQLYKRNFDTGLQEYKSLQAELDEINKELSRLDKELDDYREESEEYMAAADEYNRLKQVKGSPDYKNKRNYCKQLKSKLSHIKKMVGDYDRQKT
Regarding B1, the binding entry is given as “binds”.
